The reference is the same well before dosing, and untreated signal decays as well.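 Fibroblast labels denote human fibroblasts, mainly primary ones from uterus (C12385, HUF), lung (H6013), bone (Hs27A), adrenal (HADF) and skin (WS1), plus mammary HMF and breast cancer-associated Hs343T. Cancer cells are basal-like or mesenchymal-like triple-negative breast cancer lines. A hit is a response shift exceeding 3x replicate standard deviation. The tissue of the other fibroblasts is not given here.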
Test system: MDAMB468
Test: relative JC-1 red fluorescence (viability) vs pre-drug, coculture with fibroblast (fraction); higher = more viable cancer cells
Experimental: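 JC-1 labelled TNBC cells cocultured 1:1 (1,500 cells each) with CellTrace Violet stained primary or stromal fibroblasts in 384-well plates in FluoroBrite medium, treated with one of 42 anticancer drugs at 0.1, 1, 10 or 100 uM. JC-1 red fluorescence (mitochondrial integrity in cancer cells only) was read by plate reader every 8 h for 72 h. Values are normalised to each well's pre-drug value. The stock of one drug was tenfold lower, so its dose labels may be too high.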

N.N.[Cl][Pt][Cl] [Cisplatin]
relative JC-1 red fluorescence
Settings | 8 h | 16 h | 24 h | 32 h | 40 h | 48 h | 56 h | 64 h | 72 h
0.1 µM, coculture fibroblast: C12385 | 0.8646 | 0.817 | 0.795 | 0.747 | 0.7141 | 0.717 | 0.682 | 0.676 | 0.672
0.1 µM, coculture fibroblast: H6013 | 0.892 | 0.881 | 0.854 | 0.861 | 0.841 | 0.848 | 0.833 | 0.821 | 0.773
0.1 µM, coculture fibroblast: H6019 | 0.875 | 0.867 | 0.853 | 0.818 | 0.781 | 0.769 | 0.713 | 0.677 | 0.652
0.1 µM, coculture fibroblast: H6076 | 0.8874 | 0.908 | 0.851 | 0.849 | 0.788 | 0.779 | 0.735 | 0.728 | 0.762
0.1 µM, coculture fibroblast: H6231 | 0.826 | 0.9311 | 0.8627 | 0.826 | 0.78 | 0.75 | 0.7 | 0.667 | 0.65
0.1 µM, coculture fibroblast: HADF | 0.8573 | 0.83 | 0.771 | 0.761 | 0.722 | 0.718 | 0.7 | 0.688 | 0.652
0.1 µM, coculture fibroblast: HCFa | 0.8528 | 0.82145 | 0.7683 | 0.737 | 0.672 | 0.66 | 0.611 | 0.576 | 0.529
0.1 µM, coculture fibroblast: HCPF | 0.851 | 0.931 | 0.854 | 0.844 | 0.78 | 0.753 | 0.7031 | 0.697 | 0.694
0.1 µM, coculture fibroblast: HHSteC | 0.8898 | 0.859 | 0.816 | 0.788 | 0.754 | 0.752 | 0.706 | 0.684 | 0.633
0.1 µM, coculture fibroblast: HMF | 0.81911 | 0.9298 | 0.84 | 0.806 | 0.7451 | 0.722 | 0.683 | 0.667 | 0.6462
0.1 µM, coculture fibroblast: HPFa | 0.914 | 0.878 | 0.841 | 0.782 | 0.75 | 0.753 | 0.694 | 0.667 | 0.592
0.1 µM, coculture fibroblast: HUF | 0.927 | 0.876 | 0.868 | 0.827 | 0.776 | 0.767 | 0.731 | 0.727 | 0.713
0.1 µM, coculture fibroblast: Hs5 | 0.892 | 0.95 | 0.905 | 0.8738 | 0.815 | 0.781 | 0.748 | 0.724 | 0.744
0.1 µM, coculture fibroblast: Hs27A | 0.8505 | 0.83 | 0.76815 | 0.7603 | 0.699 | 0.69652 | 0.662 | 0.645 | 0.617
0.1 µM, coculture fibroblast: Hs343T | 0.865 | 0.911 | 0.847 | 0.827 | 0.775 | 0.76 | 0.711 | 0.702 | 0.681
0.1 µM, coculture fibroblast: WS1 | 0.8405 | 0.791 | 0.75 | 0.692 | 0.653 | 0.624 | 0.601 | 0.594 | 0.591
1 µM, coculture fibroblast: C12385 | 0.853 | 0.799 | 0.761 | 0.713 | 0.677 | 0.677 | 0.645 | 0.628 | 0.619
1 µM, coculture fibroblast: H6013 | 0.867 | 0.866 | 0.83 | 0.816 | 0.795 | 0.8017 | 0.7715 | 0.767 | 0.701
1 µM, coculture fibroblast: H6019 | 0.833 | 0.8005 | 0.767 | 0.712 | 0.661 | 0.649 | 0.6 | 0.579 | 0.546
1 µM, coculture fibroblast: H6076 | 0.9228 | 0.925 | 0.8748 | 0.854 | 0.795 | 0.776 | 0.747 | 0.726 | 0.763
1 µM, coculture fibroblast: H6231 | 0.865 | 0.921 | 0.898 | 0.903 | 0.844 | 0.824 | 0.775 | 0.751 | 0.74
1 µM, coculture fibroblast: HADF | 0.8622 | 0.846 | 0.8005 | 0.7848 | 0.764 | 0.748 | 0.7 | 0.684 | 0.6251
1 µM, coculture fibroblast: HCFa | 0.852 | 0.841 | 0.784 | 0.74 | 0.687 | 0.684 | 0.637 | 0.606 | 0.552
1 µM, coculture fibroblast: HCPF | 0.849 | 0.878 | 0.814 | 0.817 | 0.751 | 0.722 | 0.699 | 0.687 | 0.688
1 µM, coculture fibroblast: HHSteC | 0.8897 | 0.866 | 0.84 | 0.798 | 0.778 | 0.784 | 0.718 | 0.703 | 0.647
1 µM, coculture fibroblast: HMF | 0.829 | 0.869 | 0.825 | 0.8 | 0.729 | 0.716 | 0.68 | 0.658 | 0.644
1 µM, coculture fibroblast: HPFa | 0.899 | 0.904 | 0.872 | 0.8134 | 0.7894 | 0.787 | 0.727 | 0.707 | 0.636
1 µM, coculture fibroblast: HUF | 0.8964 | 0.826 | 0.771 | 0.712 | 0.666 | 0.65 | 0.599 | 0.575 | 0.554
1 µM, coculture fibroblast: Hs5 | 0.96056 | 0.907 | 0.888 | 0.868 | 0.797 | 0.785 | 0.766 | 0.743 | 0.763
1 µM, coculture fibroblast: Hs27A | 0.8467 | 0.827 | 0.752 | 0.742 | 0.6955 | 0.6945 | 0.677 | 0.671 | 0.621
1 µM, coculture fibroblast: Hs343T | 0.868 | 0.907 | 0.874 | 0.8536 | 0.78442 | 0.756 | 0.7 | 0.67 | 0.666
1 µM, coculture fibroblast: WS1 | 0.858 | 0.798 | 0.7379 | 0.6689 | 0.6215 | 0.592 | 0.549 | 0.521 | 0.504
10 µM, coculture fibroblast: C12385 | 0.815 | 0.683 | 0.627 | 0.583 | 0.539 | 0.539 | 0.506 | 0.496 | 0.489
10 µM, coculture fibroblast: H6013 | 0.837 | 0.702 | 0.634 | 0.599 | 0.583 | 0.593 | 0.571 | 0.564 | 0.507
10 µM, coculture fibroblast: H6019 | 0.8419 | 0.769 | 0.758 | 0.719 | 0.693 | 0.706 | 0.675 | 0.665 | 0.663
10 µM, coculture fibroblast: H6076 | 0.942 | 0.881 | 0.799 | 0.7914 | 0.705 | 0.7 | 0.663 | 0.644 | 0.705
10 µM, coculture fibroblast: H6231 | 0.833 | 0.8567 | 0.662 | 0.613 | 0.503 | 0.466 | 0.428 | 0.408 | 0.417
10 µM, coculture fibroblast: HADF | 0.834 | 0.69 | 0.605 | 0.552 | 0.527 | 0.519 | 0.486 | 0.478 | 0.415
10 µM, coculture fibroblast: HCFa | 0.833 | 0.7336 | 0.6462 | 0.5855 | 0.546 | 0.547 | 0.499 | 0.479 | 0.418
10 µM, coculture fibroblast: HCPF | 0.843 | 0.8338 | 0.685 | 0.657 | 0.562 | 0.5216 | 0.463 | 0.451 | 0.452
10 µM, coculture fibroblast: HHSteC | 0.848 | 0.719 | 0.649 | 0.585 | 0.572 | 0.5841 | 0.53281 | 0.5203 | 0.457
10 µM, coculture fibroblast: HMF | 0.817 | 0.806 | 0.647 | 0.598 | 0.508 | 0.486 | 0.441 | 0.431 | 0.426
10 µM, coculture fibroblast: HPFa | 0.873 | 0.735 | 0.661 | 0.581 | 0.565 | 0.574 | 0.531 | 0.52 | 0.458
10 µM, coculture fibroblast: HUF | 0.8424 | 0.69 | 0.616 | 0.5496 | 0.5155 | 0.51 | 0.4738 | 0.472 | 0.461
10 µM, coculture fibroblast: Hs5 | 0.853 | 0.83 | 0.71 | 0.658 | 0.572 | 0.545 | 0.529 | 0.509 | 0.548
10 µM, coculture fibroblast: Hs27A | 0.819 | 0.723 | 0.654 | 0.636 | 0.625 | 0.636 | 0.602 | 0.59 | 0.517
10 µM, coculture fibroblast: Hs343T | 0.857 | 0.833 | 0.6683 | 0.602 | 0.497 | 0.456 | 0.4168 | 0.406 | 0.399
10 µM, coculture fibroblast: WS1 | 0.796 | 0.662 | 0.583 | 0.511 | 0.463 | 0.443 | 0.415 | 0.408 | 0.402
100 µM, coculture fibroblast: C12385 | 0.712 | 0.6122 | 0.557 | 0.509 | 0.481 | 0.4778 | 0.453 | 0.439 | 0.434
100 µM, coculture fibroblast: H6013 | 0.709 | 0.584 | 0.501 | 0.451 | 0.449 | 0.441 | 0.418 | 0.406 | 0.353
100 µM, coculture fibroblast: H6019 | 0.781 | 0.671 | 0.586 | 0.512 | 0.453 | 0.434 | 0.387 | 0.362 | 0.341
100 µM, coculture fibroblast: H6076 | 0.827 | 0.618 | 0.516 | 0.505 | 0.432 | 0.422 | 0.398 | 0.378 | 0.405
100 µM, coculture fibroblast: H6231 | 0.864 | 0.691 | 0.598 | 0.618 | 0.517 | 0.506 | 0.47 | 0.462 | 0.475
100 µM, coculture fibroblast: HADF | 0.7811 | 0.675 | 0.564 | 0.48111 | 0.459 | 0.452 | 0.423 | 0.412 | 0.349
100 µM, coculture fibroblast: HCFa | 0.81208 | 0.802 | 0.666 | 0.57 | 0.528 | 0.514 | 0.475 | 0.451 | 0.393
100 µM, coculture fibroblast: HCPF | 0.833 | 0.69 | 0.594 | 0.602 | 0.503 | 0.478 | 0.457 | 0.447 | 0.46
100 µM, coculture fibroblast: HHSteC | 0.783 | 0.679 | 0.615 | 0.551 | 0.552 | 0.554 | 0.503 | 0.493 | 0.439
100 µM, coculture fibroblast: HMF | 0.769 | 0.624 | 0.518 | 0.486 | 0.404 | 0.388 | 0.365 | 0.356 | 0.3548
100 µM, coculture fibroblast: HPFa | 0.8117 | 0.696 | 0.632 | 0.551 | 0.558 | 0.556 | 0.514 | 0.505 | 0.443
100 µM, coculture fibroblast: HUF | 0.809 | 0.673 | 0.599 | 0.522 | 0.468 | 0.46 | 0.425 | 0.406 | 0.39
100 µM, coculture fibroblast: Hs5 | 0.874 | 0.6587 | 0.582 | 0.548 | 0.47 | 0.451 | 0.433 | 0.418 | 0.444
100 µM, coculture fibroblast: Hs27A | 0.7244 | 0.6742 | 0.5605 | 0.512 | 0.505 | 0.503 | 0.482 | 0.475 | 0.412
100 µM, coculture fibroblast: Hs343T | 0.816 | 0.632 | 0.517 | 0.481 | 0.394 | 0.381 | 0.366 | 0.36 | 0.365
100 µM, coculture fibroblast: WS1 | 0.778 | 0.637 | 0.431 | 0.337 | 0.301 | 0.291 | 0.27 | 0.261 | 0.254

Source: the supplement of paper PMC6078165
